From PMC10883916, “Cbp1 and Cren7 form chromatin-like structures that ensure efficient transcription of long CRISPR arrays”
These are yes or no findings as the source states them, for the method shown.

Molecular target: Cbp1ΔHTH3 (Cbp1 with the third helix-turn-helix domain deleted) (S. solfataricus P2)
Assay: native gel or EMSA; 800 pM 5'-radiolabelled dsDNA with one CRISPR repeat (A, D or F) or a non-canonical ISC1229 site, with 20 bp flanks (20 or 2 bp downstream); 12.5 nM Cbp1 (25 nM ΔHTH3), 3.125 to 25 nM Cren7; 10 mM MOPS pH 6.5, 100 mM KCl, 10 mM MgCl2, BSA, 10% glycerol, 5 mM DTT; 5 min at 75 °C; 6% native Tris-Glycine gel; both purified

B1: Cren7, S. solfataricus (protein, UniProt Q97ZE3 1-60)
chain: MSSGKKPVKVKTPAGKEAELVPEKVWALAPKGRKGVKIGLFKDPETGKYFRHKLPDDYPI
  binding: no binding (tested: 12.5 to 25 nM Cren7 with 25 nM ΔHTH3)
